Some of the results follow.
Each sequence was assayed against T1, OsSMF1 (Oryza sativa, UniProt Q6ZLB0 1-436) (assay: protein-binding microarray (RPBM); PBS, 2% BSA, 51.3 ng/ul salmon testes DNA, 50 uM zinc acetate, 200 nM TF, 25 C, 1 h; high values mean tight binding). Settings: protein: recombinant; tags: N-terminal polyhistidine and DsRed monomer fusion (pET32a); chain copies: 2; label: CyDye5-dUTP incorporated in the synthesized complementary strand; 3' TTTTT single-stranded linker to array surface; dsDNA, one strand shown.
T1 sequence: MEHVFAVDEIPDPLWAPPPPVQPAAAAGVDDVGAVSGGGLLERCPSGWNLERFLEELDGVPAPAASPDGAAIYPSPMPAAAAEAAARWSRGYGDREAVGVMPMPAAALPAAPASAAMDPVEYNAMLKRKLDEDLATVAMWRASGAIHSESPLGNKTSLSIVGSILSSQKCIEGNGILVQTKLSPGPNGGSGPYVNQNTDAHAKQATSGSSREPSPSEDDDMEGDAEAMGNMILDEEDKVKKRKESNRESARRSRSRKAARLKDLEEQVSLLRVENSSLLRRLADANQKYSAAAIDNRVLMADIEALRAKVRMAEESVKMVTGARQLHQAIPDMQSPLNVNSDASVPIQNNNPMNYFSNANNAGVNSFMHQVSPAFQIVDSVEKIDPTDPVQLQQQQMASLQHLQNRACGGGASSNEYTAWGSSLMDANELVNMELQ
Procedure, shortened: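 The binding signal is fluorescence intensity per feature, in arbitrary units, read on an Axon 4000B scanner. Polyhistidine- and DsRed-tagged transcription factors (N-terminal fusions) from E. coli BL21-CodonPlus were purified on Ni–NTA and applied at 200 nM for 1 h at 25 °C to a double-stranded, BSA-blocked custom Agilent array in buffer with 50 µM zinc acetate.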

Point of comparison: “CAATAGATTGCGTCATCTCTGTTCATTAGCAGTAGTTTTGCGGAGTCACCTAGTGCAG”, binding signal 16100 fluorescence intensity (a.u.). Against it:
- ATTTGCAACATAATGCCACCACCAGAATGGACACATCAACCGGAGTCACCTAGTGCAG — lower, 3160 fluorescence intensity (a.u.)
- GCCACTGCTTTTAACCATCTCATAATCCCATGTGTACATGCGGAGTCACCTAGTGCAG — lower, 3490 fluorescence intensity (a.u.)
- CAGCGAATCCATTGCATTGAGATTTCGATTACCAGTATGACGGAGTCACCTAGTGCAG — higher, 19200 fluorescence intensity (a.u.)
- GATGATGCCTTTGTTCGTCGTCGTCGTCGGCGATGGCTGTCGGAGTCACCTAGTGCAG — lower, 3270 fluorescence intensity (a.u.)
- ACATTCTTGTTGCAAGTAATTTACAGTCATTGACTGTTTACGGAGTCACCTAGTGCAG — lower, 4250 fluorescence intensity (a.u.)
- GACAGTGACCCATCAATCAATGCACAAGCAGCAGTGACGTCGGAGTCACCTAGTGCAG — lower, 3400 fluorescence intensity (a.u.)
- CGTCGATTGGCGCCGCATGGCCCGCGTATGCCACACCTGGCGGAGTCACCTAGTGCAG — lower, 3700 fluorescence intensity (a.u.)
- AGACCATTAAGGCCTATCCACGTGGTGCCCCAAGAAGGATCGGAGTCACCTAGTGCAG — lower, 5410 fluorescence intensity (a.u.)
- GTCGGTGGTGAGGTGGCGTGTTGTGTGGCGCAGATGTGAGCGGAGTCACCTAGTGCAG — lower, 10100 fluorescence intensity (a.u.)
- CGATTTATGTGAACGGCATGCATGCATCATCATCGTCCTACGGAGTCACCTAGTGCAG — lower, 3860 fluorescence intensity (a.u.)
- ATCAAACAAGAGAGCAATAACCATGCGAGGTGATGTGGATCGGAGTCACCTAGTGCAG — lower, 5270 fluorescence intensity (a.u.)
- ATTGATCACTGCAAAGTGGGCCCCACCTGTCAGCTTCCATCGGAGTCACCTAGTGCAG — lower, 5590 fluorescence intensity (a.u.)
- ATTATACGTGACAATGATATGTGGGGCTTCAATGACACATCGGAGTCACCTAGTGCAG — lower, 4540 fluorescence intensity (a.u.)
- GTATTGATGTTCTTACCATAAAAGTAACTCCATGAAAGAACGGAGTCACCTAGTGCAG — higher, 41100 fluorescence intensity (a.u.)
- TGCCCAGCTTTTCCAAATGCGTGCTCAGATGCAGAAGCTGCGGAGTCACCTAGTGCAG — lower, 3420 fluorescence intensity (a.u.)
- ATTCAGAGTACTAGCTAGTACGTGTATATAGATCGATATACGGAGTCACCTAGTGCAG — lower, 3360 fluorescence intensity (a.u.)
- CTCCGATGGCCGGAGCGACGCCTCCGCAGCCTTCGGGGTTCGGAGTCACCTAGTGCAG — lower, 3920 fluorescence intensity (a.u.)
- CAATGCCATTCCGCGGAATGACGTCGTTAAAATGCCACTGCGGAGTCACCTAGTGCAG — lower, 4640 fluorescence intensity (a.u.)
- CTTTGCCCGCCAAATGGCACGCCACCGTAATTAACCCCGACGGAGTCACCTAGTGCAG — lower, 3190 fluorescence intensity (a.u.)
- GTACGGCACGCTACTATAGTACACGCTCCTACAGCTGACTCGGAGTCACCTAGTGCAG — lower, 4090 fluorescence intensity (a.u.)
- TGCACGATTACATGGTGACCAAGCAAACCAAGGAGTACGTCGGAGTCACCTAGTGCAG — lower, 3380 fluorescence intensity (a.u.)
- CCTATTTGATGTGGCTTTTCGCCCTTCCTTTTAACCGTGTCGGAGTCACCTAGTGCAG — lower, 3430 fluorescence intensity (a.u.)
- CAGTAAAAGAAATGTCTTAACTGTGTCATCATTTGATTAACGGAGTCACCTAGTGCAG — lower, 4240 fluorescence intensity (a.u.)
- TGTAGATCTGTCGATCTCTGTCATCAACGGCAACTCCGGTCGGAGTCACCTAGTGCAG — lower, 3360 fluorescence intensity (a.u.)
- CTGTCTTTGCTGGCTGCTGCCACGGCTTCCATTCCTCCCGCGGAGTCACCTAGTGCAG — lower, 4280 fluorescence intensity (a.u.)
- GTACCCAATCGCGTCCACGTACTATTCCACTCTCTAACCTCGGAGTCACCTAGTGCAG — lower, 7270 fluorescence intensity (a.u.)
- GTAGATACACGTCGCGCGTTCGAGCCTAAGGTACCTGCTCCGGAGTCACCTAGTGCAG — lower, 3800 fluorescence intensity (a.u.)
- GATTCCTTCCTAGCTGTCACGTCATAGACTTCCCGAAGACCGGAGTCACCTAGTGCAG — lower, 7890 fluorescence intensity (a.u.)
- GCCGATTGTCCCTCACGCCAAACCATCACGTGTGCGCTTCCGGAGTCACCTAGTGCAG — lower, 4000 fluorescence intensity (a.u.)
- CTCCACTAATCTAAAATTTGTTTAATGGATCATTGCATCACGGAGTCACCTAGTGCAG — lower, 9140 fluorescence intensity (a.u.)
- GTATGGTGGTGTCTGCACGTAAGCATATACGTAGTACTACCGGAGTCACCTAGTGCAG — lower, 6120 fluorescence intensity (a.u.)
- AACTAGTACGGGTCAACGGAATGTGACGCTCATATCGATCCGGAGTCACCTAGTGCAG — lower, 3300 fluorescence intensity (a.u.)
- ACCAATCGCATGACGATATTCCCGCTCCCACAATCGCGTTCGGAGTCACCTAGTGCAG — lower, 3550 fluorescence intensity (a.u.)
- GTAGAAAGCAGGGATAAAGTATTGGTGGAGATGTCACGCCCGGAGTCACCTAGTGCAG — lower, 3560 fluorescence intensity (a.u.)
- GTGCTTGTCCTGCCTGCTTCGCTGACCTGTATAGCTTGACCGGAGTCACCTAGTGCAG — lower, 6180 fluorescence intensity (a.u.)
- GTATCAATGCATAACAGTGTGCCACGTACAGCCAGTAGCACGGAGTCACCTAGTGCAG — lower, 5490 fluorescence intensity (a.u.)
- CAGGGGTTTCCAATCTTGGGGTAACAACAACACATTGCGTCGGAGTCACCTAGTGCAG — lower, 3440 fluorescence intensity (a.u.)
- GGCCTCTGATTGCGTTGCGCCTTTCGTCGTGCCACGGCGTCGGAGTCACCTAGTGCAG — lower, 9390 fluorescence intensity (a.u.)
- ACCGTGTTGATAGAAATTTGTCATAGTCTCACATATTTTCCGGAGTCACCTAGTGCAG — lower, 3340 fluorescence intensity (a.u.)
- GGCAGCGACCACGACACGTCGTTGTTCCCTCTGCTCCCGCCGGAGTCACCTAGTGCAG — lower, 6470 fluorescence intensity (a.u.)
- TTTTCCTTTTCTCTTGGATGACGACAGATGCCGGTTTGTGCGGAGTCACCTAGTGCAG — lower, 4220 fluorescence intensity (a.u.)

From PMC7819943, “Rice protein-binding microarrays: a tool to detect cis-acting elements near promoter regions in rice”
